Reference: patent publication US20030119813A1, “Derivatives of pyrimido[6,1-a]isoquinolin-4-one” (priority 2001, published 2003)
Some results were stated once for a whole list of compounds, not compound by compound. Some compounds share one range, which may span the group rather than tell each member.

Test system: guinea-pig tracheal rings
Assay: Organ bath experiments, guinea-pig tracheal rings, electrical field stimulation
Conditions: 10 μM, washout
Procedure: Guinea-pig tracheal rings were suspended in organ baths under 1 g tension between two electrodes and subjected to electrical field stimulation (3 Hz, 0.1 ms duration and 20V (approx 400 mAmps) generated every 100 sec by means of physiological square wave-stimulator. The compounds of Examples 1, 2 and 8 were dissolved in DMSO containing Tween 80 (10%) and distilled water (0.01M), which were then added to the organ bath to give a final concentration of 10 μM.

COc1cc2c(cc1OC)-c1cc(Oc3c(C)cccc3C)nc(=O)n1CC2 [Example 1, 6,7-Dihydro-2-(2,6-dimethylphenoxy)-9,10-dimethoxy-4H-pyrimido-[6,1-a]isoquinolin-4-one]
time the effect was maintained: 2 to 4 h

COc1cc2c(cc1OC)-c1cc(Oc3c(C(C)C)cccc3C(C)C)nc(=O)n1CC2 [Example 2, 6,7-Dihydro-2-(2,6-diisopropylphenoxy)-9,10-dimethoxy-4H-pyrimido-[6,1-a]isoquinolin-4-one]
time the effect was maintained: 2 to 4 h

COc1cc2c(cc1OC)-c1cc(Oc3c(Cl)cccc3Cl)nc(=O)n1CC2 [Example 8, 2-(2,6-Dichlorophenoxy)-6,7-dihydro-9,10-dimethoxy-4H-pyrimido-[6,1-a]isoquinolin-4-one]
time the effect was maintained: 2 to 4 h
